Data as given in PubChem BioAssay AID720505 (Drosophila RNAi Screening Center, 2013).

Test: 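Genes needed for store-operated calcium entry in fly cells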 (primary screen)
Cells: Drosophila S2R+ cells
Reagent: long dsRNA against Drosophila genes
Treatment: thapsigargin (2 µM) in calcium-free buffer to empty internal stores, then 2 mM calcium added back
Read-out: 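Stores emptied by 2 µM thapsigargin without calcium, then 2 mM calcium re-added; fluo-4 fluorescence followed by FLIPR in 384-well plates, per-well averaged endpoint, raw; two screen passes, some wells retested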
Scale: calcium signal and retest calcium signal: higher = more calcium entry after store depletion
Active means: 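Knock-downs counted as hits when calcium entry dropped relative to STIM1 positive and Rho1 negative controls present on each plate; roughly 1500 genes called, with reductions of differing size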
Calls: active = called as lowering calcium entry; inactive = not called
The screen tested about 20,000 reagents; below is a random part of those that have a named target and a result. Over the whole deposit, about 2,100 (10%) are marked active. 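Raw plate signals without normalisation; calls rest on control-based scores that were not deposited; replicate 2 separates called from uncalled poorly.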 A plus sign joins genes that one reagent is predicted to hit. Not stated in the record: the amount of reagent, the time to read-out.

no.	target	PubChem SID	calcium signal, replicate 1	calcium signal, replicate 2	retest calcium signal, replicate 1	retest calcium signal, replicate 2	Call
1	CG8388	SID104186949	126	135			inactive
2	Eglp2	SID104184086	150	93.6			inactive
3	CG32073	SID104189686	95.6	70.1			inactive
4	Rubicon	SID104197681	195	118			inactive
5	Obp49a	SID104201990	94	150			inactive
6	Osi21	SID104182200	175	169			inactive
7	Men-b	SID104196528	169	145			inactive
8	Roc2	SID104187105	90.3	175			inactive
9	Boot	SID104186204	100	132			inactive
10	CG9737	SID104196342	128	109			inactive
11	Gdap1	SID104190229	110	112			inactive
12	Dref	SID104183111	117	110			inactive
13	CR31958	SID104180074	168	98			inactive
14	CR31958	SID104201499	55.5	142			active
15	CG46491	SID104186357	105	95.3			inactive
16	CG46491	SID104186358	163	146			inactive
17	Arp8	SID104199851	138	110			inactive
18	CG5554	SID104184305	109	172			inactive
19	KP78a + KP78b	SID104196513	142	110			inactive
20	KP78a + KP78b	SID104196514	123	162			inactive
21	Ugt36D1	SID104182392	96.1	118			inactive
22	CG1161	SID104191972	102	116			inactive
23	Got2	SID104180435	159	264			inactive
24	ACC	SID104185851	123	138			inactive
25	ACC	SID104187041	176	171			inactive
26	CG10343	SID104181833	59.9	83.2			active
27	Src64B	SID104188492	87	50.6			inactive
28	sws	SID104198635	96.7	84	127	179	inactive

Copied from the list.
Value of KP78a + KP78b [SID104196513] in “calcium signal, replicate 2”: 110
Boot [SID104186204], Call: inactive
ACC [SID104187041], calcium signal, replicate 1 → 176
Result of Rubicon [SID104197681] under “calcium signal, replicate 2”: 118

More entries follow:
no.	target	PubChem SID	calcium signal, replicate 1	calcium signal, replicate 2	retest calcium signal, replicate 1	retest calcium signal, replicate 2	Call
29	AdoR	SID104196348	181	138			inactive
30	CG13972	SID104194507	128	84.6			inactive
31	CG2750	SID104199659	110	85.8	89.5	167	inactive
32	Inx6	SID104200371	80.3	114			inactive
33	Syx1A	SID104195151	194	166			inactive
34	Syx1A	SID104201269	165	66.6			inactive
35	CG14839	SID104194755	112	117	98.1	100	inactive
36	Rab19	SID104191052	78.5	72.6			inactive
37	Hsp67Ba	SID104190983	63	107			inactive
38	CG9213	SID104199962	121	138			inactive
39	qjt	SID104189852	91.6	125			inactive
40	CG1324	SID104200288	193	138			inactive
41	CG6983	SID104190549	74.1	82.8			active
42	Obp56g	SID104186224	182	165			inactive
43	Charon	SID104180471	138	298			inactive
44	CG42531	SID104185110	57.1	117			inactive
45	Mtk	SID104187267	110	186			inactive
46	ATP8A	SID104185213	56.5	132			inactive
47	ATP8A	SID104186435	136	120			inactive
48	ATP8A	SID104186436	149	232			inactive
49	CG14234	SID104199109	123	141			inactive
50	CG14234	SID104199381	52.5	101			active
51	Polr2M	SID104195305	172	106			inactive
52	mei-217 + mei-218	SID104200141	110	163			inactive
53	CG34005	SID104185492	47.4	80.4			inactive
54	Lcp1Psi	SID104184897	101	108			inactive
55	CG11857	SID104194203	253	137			inactive
56	mahj	SID104183845	179	79.6			inactive
